The list shows a part of the results. Repeats in this data set agree poorly, so a single value says little.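 Free-swimming zebrafish larvae were scored for O-bend response probability to dark flashes (naive: first five; training: remaining flashes of four 60-flash blocks; test: later 60-flash block) and for turning toward alternating leftward/rightward LED motion (OMR). Six treated larvae were compared with sixty 0.1% DMSO controls; |SSMD|≥2 defined a hit.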
Legend:
Conditions in all cases: 10 µM; pre-incubation: 30-90 min
[1] = tested on: Danio rerio larvae (5 dpf, TLF); test: OMR-Perf (SSMD vs DMSO vehicle); higher = higher than vehicle (e.g. higher dark-flash O-bend response probability, or better optomotor performance)
[2] = tested on: Danio rerio larvae (5 dpf, TLF); test: Prob-Test (SSMD vs DMSO vehicle); higher = higher than vehicle (e.g. higher dark-flash O-bend response probability, or better optomotor performance)
[3] = tested on: Danio rerio larvae (5 dpf, TLF); test: Prob-Naive (SSMD vs DMSO vehicle); higher = higher than vehicle (e.g. higher dark-flash O-bend response probability, or better optomotor performance)
[4] = tested on: Danio rerio larvae (5 dpf, TLF); test: Prob-Train (SSMD vs DMSO vehicle); higher = higher than vehicle (e.g. higher dark-flash O-bend response probability, or better optomotor performance)

Compound | OMR-Perf [1] | Prob-Test [2] | Prob-Naive [3] | Prob-Train [4]
CS(=O)(=O)N1CCN(Cc2cc3nc(-c4cccc5[nH]ncc45)nc(N4CCOCC4)c3s2)CC1 | -0.436 | -0.464 | -0.225 | -0.771
CC(=O)CCCCn1c(=O)c2c(ncn2C)n(C)c1=O [Pentoxifylline] | -0.624 | 0.566 | 0.0912 | 0.348
CCCCN(Cc1ccc(C(=O)NO)cc1)C(=O)Nc1ccccc1 [Nexturastat A] | -0.116 | 0.206 | 0.446 | 0.155
CCS(=O)(=O)N1CC(CC#N)(n2cc(-c3ncnc4[nH]ccc34)cn2)C1 | -0.455 | -0.204 | 0.446 | -0.0457

Source: the supplement of paper PMC10727501
